Drug screen on melanoma cell lines: cell count

Values as published with doi:10.1371/journal.pone.0140310, rounded.

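Human melanoma cells were exposed to a pair of drugs for 72 h in 1,536-well plates and read by automated microscopy after fixing and staining. The read-out is cell count (nuclei) in % of the DMSO control; lower values mean stronger growth inhibition or killing. Every drug was used at one fixed concentration, the higher of two screened. These are primary screening values without error estimates.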
This is part of the screen, not chosen by result.
An entry leaves out what has no value listed here.
A dash means that no value is listed here.

Every entry is a combination with L-779450 at 1 µM: Oc1cc(-c2nc(-c3ccccc3)[nH]c2-c2ccncc2)ccc1Cl

Compounds and concentrations:
fingolimod (10 µM): CCCCCCCCc1ccc(CCC(N)(CO)CO)cc1
PF-04217903 (5 µM): OCCn1cc(-c2cnc3nnn(Cc4ccc5ncccc5c4)c3n2)cn1
GSK650394 (0.8 µM): O=C(O)c1ccc(-c2c[nH]c3ncc(-c4ccccc4)cc23)cc1C1CCCC1
nutlin-3 (0.5 µM): COc1ccc(C2=N[C@@H](c3ccc(Cl)cc3)[C@@H](c3ccc(Cl)cc3)N2C(=O)N2CCNC(=O)C2)c(OC(C)C)c1
BI-78D3 (1 µM): O=c1[nH]nc(Sc2ncc([N+](=O)[O-])s2)n1-c1ccc2c(c1)OCCO2
selumetinib (0.075 µM): Cn1cnc2c(F)c(Nc3ccc(Br)cc3Cl)c(C(=O)NOCCO)cc21
tipifarnib (0.05 µM): Cn1cncc1[C@@](N)(c1ccc(Cl)cc1)c1ccc2c(c1)c(-c1cccc(Cl)c1)cc(=O)n2C
tamatinib (2 µM): COc1cc(Nc2ncc(F)c(Nc3ccc4c(n3)NC(=O)C(C)(C)O4)n2)cc(OC)c1OC
ZM336372 (10 µM): Cc1ccc(NC(=O)c2cccc(N(C)C)c2)cc1NC(=O)c1ccc(O)cc1
cediranib (2 µM): COc1cc2c(Oc3ccc4[nH]c(C)cc4c3F)ncnc2cc1OCCCN1CCCC1
SNS-314 (0.004 µM): O=C(Nc1cccc(Cl)c1)Nc1ncc(CCNc2ncnc3ccsc23)s1
STA-4783 (0.03 µM): CN(NC(=O)CC(=O)NN(C)C(=S)c1ccccc1)C(=S)c1ccccc1

Partner	COLO 829	COLO 792	C32	WM451Lu	COLO 800
tipifarnib	84.3	93.6	81.0	51.6	94.6
cediranib	75.0	75.0	60.9	-	57.4
tamatinib	71.5	45.3	46.1	-	37.9
PF-04217903	68.0	115	84.4	-	84.2
selumetinib	50.7	89.1	35.6	-	72.8
STA-4783	29.1	23.7	27.0	-	17.6
GSK650394	70.6	98.7	81.5	-	69.5
ZM336372	94.6	91.3	81.5	-	105
BI-78D3	70.7	116	81.6	-	78.0
SNS-314	71.4	80.3	74.8	-	63.3
fingolimod	28.9	1.3	3.2	-	14.0
nutlin-3	62.9	101	65.0	-	93.4

The first 2 entries again:

* tipifarnib | COLO 829: 84.3; COLO 792: 93.6; C32: 81.0; WM451Lu: 51.6; COLO 800: 94.6
* cediranib | COLO 829: 75.0; COLO 792: 75.0; C32: 60.9; COLO 800: 57.4